This is an account of results in patent publication US12629415B2, “Vaccine adjuvants” (THE PROVOST, FELLOWS, FOUNDATION SCHOLARS, AND THE OTHER …, priority 2018, dated 2026).

The subject of the assay is adult PBMCs or neonatal CBMCs. Put plainly: HEK-Blue IFNα/β SEAP assay on supernatants of stimulated mononuclear cells. It counts as cell-based, human. As to conditions: neonatal CBMCs compared with adult PBMCs; stimulation 4, 8 or 24 h. How it is done:
Isolation of mononuclear cells and monocytes—Primary PBMCs or CBMCs were isolated from healthy human blood or cord blood. Monocytes were isolated by negative selection using Monocyte Isolation Kit II (Miltenyi). […] Cells were cultured at 37° C., 5% CO2, 95% air in RPMI-1640, with stable 2.5 mM L-glutamine and 0.5 mM sodium pyruvate with 10% FBS (all from Sigma-Aldrich).
Poly(I:C) (5 μg/ml) (Invivogen), Poly(dA:dT) (5 μg/ml) (Sigma-Aldrich), 2′3′ cGAMP (10 μg/ml), 5′ triphosphate double stranded RNA (5′ ppp dsRNA) (2.5 μg/ml) and HSV-60 (2 μg/ml) (all from Invivogen) were transfected into PBMCs or CBMCs using TransIT-X2 (Mirus).
Measurement of cytokines—HEK Blue TNFα/IFNα/β Assays were performed as per the manufacturer's (Invivogen) instructions using Quanti-Blue Detection Reagent. SEAP levels were determined using a spectrophotometer plate reader at 630 nm. IFNα (3425-1H-6, Mabtech) and IP-10 (DY266, R&D Systems) were detected by sandwich ELISA. IFNα ELISA used pan specific IFNα antibodies, which allows detection of IFNα subtypes 1/13, 2, 4, 5, 6, 7, 8, 10, 14, 16 and 17. BioLegend LEGENDplex™ Human Inflammation Panel (13-plex) was carried out as per manufacturer's (Biolegend) instructions to determine levels of IFNγ, IL-10, IL-12p70 and IL-23. A BD LSR Fortessa cell analyser was used to acquire samples and BioLegend LEGENDplex™ software was used for analysis.

Consider `CCCc1nc2c(N)nc3ccccc3c2s1` [CL075, reference compound], for which the “type I IFN (IFNα/β) production” value is given as “significantly lower levels of IFNα/β production from CBMCs compared with PBMCs”.
